Measured values reported in the supplement of paper PMC11006884.
The entries are a selection whose mix differs from that of the whole data set.

Sequences of proteins named here, by UniProt entry; tags and fusion partners are left off. A change or cut given only in a name is not applied to a line headed by its entry.
UniProt P53611: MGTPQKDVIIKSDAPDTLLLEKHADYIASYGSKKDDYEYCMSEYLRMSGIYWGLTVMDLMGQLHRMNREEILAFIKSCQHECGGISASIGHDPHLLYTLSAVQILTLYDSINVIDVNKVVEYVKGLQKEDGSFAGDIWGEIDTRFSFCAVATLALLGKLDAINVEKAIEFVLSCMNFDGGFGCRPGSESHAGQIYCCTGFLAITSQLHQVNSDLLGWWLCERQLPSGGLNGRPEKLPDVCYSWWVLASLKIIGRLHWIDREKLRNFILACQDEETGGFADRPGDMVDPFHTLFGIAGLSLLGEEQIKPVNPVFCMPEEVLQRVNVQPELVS
UniProt P55795: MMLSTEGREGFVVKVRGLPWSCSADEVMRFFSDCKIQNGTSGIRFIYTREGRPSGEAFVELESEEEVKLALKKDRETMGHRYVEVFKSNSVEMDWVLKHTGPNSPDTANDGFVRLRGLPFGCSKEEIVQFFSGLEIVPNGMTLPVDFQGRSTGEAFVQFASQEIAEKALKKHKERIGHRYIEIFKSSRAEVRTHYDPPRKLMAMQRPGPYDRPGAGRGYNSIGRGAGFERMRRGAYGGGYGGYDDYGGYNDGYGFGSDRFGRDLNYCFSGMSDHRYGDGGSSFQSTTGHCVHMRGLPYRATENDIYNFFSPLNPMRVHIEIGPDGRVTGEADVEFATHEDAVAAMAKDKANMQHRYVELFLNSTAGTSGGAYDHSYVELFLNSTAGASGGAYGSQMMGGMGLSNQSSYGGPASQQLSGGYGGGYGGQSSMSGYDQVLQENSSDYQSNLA
UniProt P53384: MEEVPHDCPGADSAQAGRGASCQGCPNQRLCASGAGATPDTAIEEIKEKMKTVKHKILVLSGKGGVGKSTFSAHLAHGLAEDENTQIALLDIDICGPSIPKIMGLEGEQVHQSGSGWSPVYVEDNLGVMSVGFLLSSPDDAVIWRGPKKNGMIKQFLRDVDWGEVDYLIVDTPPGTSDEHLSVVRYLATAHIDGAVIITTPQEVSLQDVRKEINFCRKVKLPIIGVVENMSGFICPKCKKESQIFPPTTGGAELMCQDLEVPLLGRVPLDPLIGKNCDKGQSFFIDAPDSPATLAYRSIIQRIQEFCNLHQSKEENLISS
UniProt P53677: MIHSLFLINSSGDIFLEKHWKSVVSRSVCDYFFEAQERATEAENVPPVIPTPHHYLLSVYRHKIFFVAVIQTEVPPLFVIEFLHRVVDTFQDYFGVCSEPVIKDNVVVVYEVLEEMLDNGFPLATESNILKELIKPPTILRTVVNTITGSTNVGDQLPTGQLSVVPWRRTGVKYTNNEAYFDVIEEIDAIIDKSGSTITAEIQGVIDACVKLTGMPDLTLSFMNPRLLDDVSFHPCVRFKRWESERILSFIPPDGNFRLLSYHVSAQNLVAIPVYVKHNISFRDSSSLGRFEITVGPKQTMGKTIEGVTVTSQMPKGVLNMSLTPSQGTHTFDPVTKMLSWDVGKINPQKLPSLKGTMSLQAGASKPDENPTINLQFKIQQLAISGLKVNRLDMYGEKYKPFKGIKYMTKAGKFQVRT
UniProt P52888, whole entry, looked up: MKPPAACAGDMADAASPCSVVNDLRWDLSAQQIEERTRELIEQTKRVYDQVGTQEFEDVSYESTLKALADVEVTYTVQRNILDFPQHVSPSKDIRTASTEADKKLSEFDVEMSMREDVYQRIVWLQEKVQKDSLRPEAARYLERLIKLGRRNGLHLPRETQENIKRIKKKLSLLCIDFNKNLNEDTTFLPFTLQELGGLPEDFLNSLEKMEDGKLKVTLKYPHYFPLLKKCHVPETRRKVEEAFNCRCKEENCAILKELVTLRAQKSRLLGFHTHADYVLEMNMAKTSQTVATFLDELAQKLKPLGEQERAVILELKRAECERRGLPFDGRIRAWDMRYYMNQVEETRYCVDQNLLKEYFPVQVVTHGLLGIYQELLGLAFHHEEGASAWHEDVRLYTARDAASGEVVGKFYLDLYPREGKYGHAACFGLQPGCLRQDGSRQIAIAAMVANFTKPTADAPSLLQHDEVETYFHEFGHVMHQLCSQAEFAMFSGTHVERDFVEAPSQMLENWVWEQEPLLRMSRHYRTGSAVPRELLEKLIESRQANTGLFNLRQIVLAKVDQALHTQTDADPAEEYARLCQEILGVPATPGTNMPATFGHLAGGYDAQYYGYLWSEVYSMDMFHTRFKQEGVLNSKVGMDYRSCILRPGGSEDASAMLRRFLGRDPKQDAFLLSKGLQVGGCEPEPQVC
UniProt P60891: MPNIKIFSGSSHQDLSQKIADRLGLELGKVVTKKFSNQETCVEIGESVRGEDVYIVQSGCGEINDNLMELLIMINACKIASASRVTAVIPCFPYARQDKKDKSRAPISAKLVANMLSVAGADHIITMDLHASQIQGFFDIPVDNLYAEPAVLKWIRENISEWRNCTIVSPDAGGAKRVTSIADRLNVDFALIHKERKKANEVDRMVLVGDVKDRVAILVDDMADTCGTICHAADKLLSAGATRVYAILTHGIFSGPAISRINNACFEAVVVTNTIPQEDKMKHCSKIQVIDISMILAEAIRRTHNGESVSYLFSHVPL
UniProt P57678: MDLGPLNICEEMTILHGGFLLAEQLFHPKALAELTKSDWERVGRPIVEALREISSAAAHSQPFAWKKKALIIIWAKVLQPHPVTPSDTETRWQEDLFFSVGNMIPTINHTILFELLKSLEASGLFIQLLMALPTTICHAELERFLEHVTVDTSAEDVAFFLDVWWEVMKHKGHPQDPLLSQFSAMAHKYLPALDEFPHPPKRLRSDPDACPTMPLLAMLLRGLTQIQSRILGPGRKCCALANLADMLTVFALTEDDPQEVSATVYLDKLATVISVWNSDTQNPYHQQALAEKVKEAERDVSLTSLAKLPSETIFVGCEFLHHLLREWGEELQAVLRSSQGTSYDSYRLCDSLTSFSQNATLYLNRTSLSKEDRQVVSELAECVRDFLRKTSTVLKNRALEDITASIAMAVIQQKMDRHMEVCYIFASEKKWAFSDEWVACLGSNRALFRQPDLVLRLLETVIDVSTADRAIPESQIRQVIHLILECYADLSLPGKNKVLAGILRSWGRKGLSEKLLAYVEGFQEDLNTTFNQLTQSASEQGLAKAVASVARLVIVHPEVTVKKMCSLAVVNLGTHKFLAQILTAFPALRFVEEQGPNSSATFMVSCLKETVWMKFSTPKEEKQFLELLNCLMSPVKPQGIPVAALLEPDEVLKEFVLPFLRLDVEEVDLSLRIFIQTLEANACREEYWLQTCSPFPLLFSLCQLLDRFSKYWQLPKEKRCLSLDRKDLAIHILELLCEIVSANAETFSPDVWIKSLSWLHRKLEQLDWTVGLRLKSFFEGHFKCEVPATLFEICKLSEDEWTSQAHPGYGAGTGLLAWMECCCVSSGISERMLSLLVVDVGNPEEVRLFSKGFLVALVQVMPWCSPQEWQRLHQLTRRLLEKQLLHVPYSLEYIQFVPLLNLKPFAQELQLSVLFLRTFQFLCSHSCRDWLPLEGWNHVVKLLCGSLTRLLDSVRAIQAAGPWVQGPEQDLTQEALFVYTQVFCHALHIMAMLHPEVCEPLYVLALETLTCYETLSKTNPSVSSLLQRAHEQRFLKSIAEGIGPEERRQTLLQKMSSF
UniProt P61224: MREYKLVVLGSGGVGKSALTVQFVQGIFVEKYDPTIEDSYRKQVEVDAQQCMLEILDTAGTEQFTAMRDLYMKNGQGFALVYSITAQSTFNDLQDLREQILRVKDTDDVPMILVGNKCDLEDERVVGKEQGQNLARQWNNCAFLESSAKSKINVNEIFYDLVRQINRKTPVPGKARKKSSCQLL
UniProt P55196: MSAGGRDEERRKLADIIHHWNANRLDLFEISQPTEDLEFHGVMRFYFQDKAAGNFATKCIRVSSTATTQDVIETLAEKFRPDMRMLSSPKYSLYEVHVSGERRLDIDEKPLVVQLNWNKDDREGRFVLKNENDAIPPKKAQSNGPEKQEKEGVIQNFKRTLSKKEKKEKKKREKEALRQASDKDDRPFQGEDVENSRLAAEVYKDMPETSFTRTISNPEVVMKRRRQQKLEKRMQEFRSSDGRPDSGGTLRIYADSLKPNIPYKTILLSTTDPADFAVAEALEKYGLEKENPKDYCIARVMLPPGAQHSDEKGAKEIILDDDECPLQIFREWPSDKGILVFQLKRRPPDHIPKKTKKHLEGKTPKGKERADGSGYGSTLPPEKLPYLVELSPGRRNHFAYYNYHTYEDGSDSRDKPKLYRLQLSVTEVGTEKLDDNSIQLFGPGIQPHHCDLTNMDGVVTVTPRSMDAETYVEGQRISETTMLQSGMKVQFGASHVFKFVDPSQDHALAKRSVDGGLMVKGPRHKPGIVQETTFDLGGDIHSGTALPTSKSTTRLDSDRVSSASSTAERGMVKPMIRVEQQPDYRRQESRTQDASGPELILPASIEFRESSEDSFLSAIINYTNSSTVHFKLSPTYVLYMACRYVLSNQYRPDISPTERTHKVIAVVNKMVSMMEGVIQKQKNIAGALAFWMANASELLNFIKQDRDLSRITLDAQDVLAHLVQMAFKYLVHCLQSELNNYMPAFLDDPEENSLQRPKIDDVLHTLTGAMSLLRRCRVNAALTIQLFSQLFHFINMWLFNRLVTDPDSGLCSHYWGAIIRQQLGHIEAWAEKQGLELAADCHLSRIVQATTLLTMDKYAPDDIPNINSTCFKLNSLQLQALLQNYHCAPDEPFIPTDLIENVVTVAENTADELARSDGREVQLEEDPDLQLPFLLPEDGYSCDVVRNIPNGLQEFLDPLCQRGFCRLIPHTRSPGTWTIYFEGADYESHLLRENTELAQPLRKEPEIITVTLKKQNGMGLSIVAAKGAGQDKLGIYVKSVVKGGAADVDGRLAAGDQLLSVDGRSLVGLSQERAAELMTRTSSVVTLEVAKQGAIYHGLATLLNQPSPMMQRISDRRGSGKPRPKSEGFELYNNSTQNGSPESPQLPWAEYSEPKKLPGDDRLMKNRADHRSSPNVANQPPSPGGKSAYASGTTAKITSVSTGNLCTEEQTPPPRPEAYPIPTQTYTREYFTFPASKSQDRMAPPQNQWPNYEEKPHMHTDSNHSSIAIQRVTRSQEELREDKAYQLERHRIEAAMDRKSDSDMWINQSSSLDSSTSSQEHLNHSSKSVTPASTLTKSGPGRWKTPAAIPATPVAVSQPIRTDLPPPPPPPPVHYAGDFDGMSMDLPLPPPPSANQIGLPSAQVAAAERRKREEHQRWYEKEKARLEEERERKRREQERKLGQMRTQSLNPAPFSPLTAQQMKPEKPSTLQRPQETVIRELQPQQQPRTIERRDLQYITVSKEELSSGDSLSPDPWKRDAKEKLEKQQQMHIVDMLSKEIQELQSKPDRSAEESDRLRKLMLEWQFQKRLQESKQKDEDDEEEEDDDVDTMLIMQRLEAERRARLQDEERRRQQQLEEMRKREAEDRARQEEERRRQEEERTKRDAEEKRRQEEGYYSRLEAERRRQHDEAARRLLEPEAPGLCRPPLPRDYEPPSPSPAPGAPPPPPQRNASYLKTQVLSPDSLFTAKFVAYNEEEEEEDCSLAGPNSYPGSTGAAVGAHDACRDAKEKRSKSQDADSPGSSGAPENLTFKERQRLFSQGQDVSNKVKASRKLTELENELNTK
UniProt P62068, whole entry: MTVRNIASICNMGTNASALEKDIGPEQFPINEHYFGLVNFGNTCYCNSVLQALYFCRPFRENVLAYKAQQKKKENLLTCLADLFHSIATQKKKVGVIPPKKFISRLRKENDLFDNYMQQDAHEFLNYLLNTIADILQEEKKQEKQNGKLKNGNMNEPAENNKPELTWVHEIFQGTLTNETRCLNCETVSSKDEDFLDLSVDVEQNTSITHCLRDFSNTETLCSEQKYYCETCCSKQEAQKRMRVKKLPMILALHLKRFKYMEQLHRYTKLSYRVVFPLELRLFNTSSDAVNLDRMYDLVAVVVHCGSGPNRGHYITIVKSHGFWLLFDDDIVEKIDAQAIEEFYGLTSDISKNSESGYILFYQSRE
UniProt P55211: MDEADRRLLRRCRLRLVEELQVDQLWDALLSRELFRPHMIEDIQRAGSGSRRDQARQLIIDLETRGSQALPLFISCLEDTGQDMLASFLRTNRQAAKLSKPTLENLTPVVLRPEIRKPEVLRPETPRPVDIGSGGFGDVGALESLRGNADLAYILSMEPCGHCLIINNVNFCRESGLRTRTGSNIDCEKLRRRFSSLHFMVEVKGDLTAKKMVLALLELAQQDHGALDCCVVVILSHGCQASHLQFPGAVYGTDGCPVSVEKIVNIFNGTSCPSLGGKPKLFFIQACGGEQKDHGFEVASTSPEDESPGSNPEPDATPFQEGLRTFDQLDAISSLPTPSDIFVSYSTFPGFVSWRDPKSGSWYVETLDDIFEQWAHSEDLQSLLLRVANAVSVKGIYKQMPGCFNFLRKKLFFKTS

compound: COC(=O)C#Cc1ccccc1 [methyl 3-phenylpropiolate]; test: log2 ratio of iodoacetamide-alkyne labeling of the cysteine site, DMSO over compound (competition); higher = stronger covalent engagement of the cysteine by the compound, active = 1 or more; conditions: 500 µM; treatment time 1 h; system: HEK293T cell lysate
Outline: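 HEK293T lysate (2 mg/mL) was incubated with electrophile (500 µM) or vehicle for 1 h at ambient temperature and then with iodoacetamide alkyne for 1 h. Labelled proteins were clicked to sCIP-TMT reagents, pooled, digested, enriched on streptavidin and measured by Orbitrap Eclipse LC-MS/MS with FAIMS, with FragPipe quantification. The per-cysteine log2 competition ratio is mean control-channel reporter intensity over mean compound-channel reporter intensity. Across three replicates with duplicate channels, cysteines quantified in only one replicate were excluded.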

Target	log2 ratio of iodoacetamide-alkyne labeling
RABGGTB C40 (UniProt P53611)	inactive: 0.157
HNRNPH2 C267 (UniProt P55795)	inactive: 0.292
RPS3A C111 (UniProt P61247)	inactive: 0.563
UniProt P61978_C132	inactive: 0.275
NUBP1 C277 (UniProt P53384)	inactive: 0.727
AP3M2 C29 (UniProt P53677)	inactive: 0.485
THOP1 C7 (UniProt P52888)	inactive: 0.539
UniProt P60891_C265	inactive: 0.0133
GEMIN4 C382 (UniProt P57678)	inactive: 0.0965
CTBP2 C140 (UniProt P56545)	inactive: -0.121
KIF11 C773 (UniProt P52732)	inactive: 0.48
ACLY C845 (UniProt P53396)	inactive: 0.135
UniProt P61224_C141	inactive: 0.129
AK2 C42 (UniProt P54819)	inactive: 0.229
UniProt P55196_C1764	inactive: 0.821
USP46 C10 (UniProt P62068)	inactive: 0.797
COPB1 C616 (UniProt P53618)	inactive: 0.0621
CASP9 C287 (UniProt P55211)	inactive: 0.994
NUP98 C1590 (UniProt P52948)	inactive: 0.601
RPS3A C139 (UniProt P61247)	inactive: -0.123
UniProt P55072_C572	inactive: -0.137
UniProt P55196_C1684	inactive: 0.266

Individual results from the list:
USP46 C10 (UniProt P62068) – log2 ratio of iodoacetamide-alkyne labeling: inactive: 0.797
UniProt P55196_C1764 – log2 ratio of iodoacetamide-alkyne labeling: inactive: 0.821
